Source: PMC11602991
No constants are given. Whether binding was seen depends on the method and setting.

By UniProt entry, the sequences of proteins in these tests, tags left out. Where a name states a change or a piece, a line headed by the entry shows the natural chain unless it says otherwise. Residues count along the entry.
UniProt Q9Y6E0, residues 2-443: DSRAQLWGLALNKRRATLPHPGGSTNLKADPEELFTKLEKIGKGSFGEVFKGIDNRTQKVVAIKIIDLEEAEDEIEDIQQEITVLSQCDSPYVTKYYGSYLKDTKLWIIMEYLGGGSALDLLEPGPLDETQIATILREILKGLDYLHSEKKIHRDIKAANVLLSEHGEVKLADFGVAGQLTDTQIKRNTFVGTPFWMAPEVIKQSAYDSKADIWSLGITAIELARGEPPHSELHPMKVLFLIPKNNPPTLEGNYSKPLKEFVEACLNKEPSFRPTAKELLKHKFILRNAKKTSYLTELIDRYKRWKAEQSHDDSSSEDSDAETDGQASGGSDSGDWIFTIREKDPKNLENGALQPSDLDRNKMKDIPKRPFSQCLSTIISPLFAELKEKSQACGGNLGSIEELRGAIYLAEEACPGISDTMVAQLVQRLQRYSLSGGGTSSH
UniProt Q9P289, residues 2-416: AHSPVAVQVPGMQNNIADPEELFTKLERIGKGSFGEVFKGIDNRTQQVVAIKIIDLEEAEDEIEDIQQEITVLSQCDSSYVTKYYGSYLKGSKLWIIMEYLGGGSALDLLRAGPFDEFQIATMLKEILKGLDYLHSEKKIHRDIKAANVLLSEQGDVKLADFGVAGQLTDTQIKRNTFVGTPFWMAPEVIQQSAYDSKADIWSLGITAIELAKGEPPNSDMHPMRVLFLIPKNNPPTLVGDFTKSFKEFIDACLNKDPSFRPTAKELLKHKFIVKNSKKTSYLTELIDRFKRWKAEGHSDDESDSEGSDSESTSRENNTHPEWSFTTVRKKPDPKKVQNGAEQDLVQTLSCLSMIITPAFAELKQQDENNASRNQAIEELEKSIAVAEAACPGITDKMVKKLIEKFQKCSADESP
UniProt O00506: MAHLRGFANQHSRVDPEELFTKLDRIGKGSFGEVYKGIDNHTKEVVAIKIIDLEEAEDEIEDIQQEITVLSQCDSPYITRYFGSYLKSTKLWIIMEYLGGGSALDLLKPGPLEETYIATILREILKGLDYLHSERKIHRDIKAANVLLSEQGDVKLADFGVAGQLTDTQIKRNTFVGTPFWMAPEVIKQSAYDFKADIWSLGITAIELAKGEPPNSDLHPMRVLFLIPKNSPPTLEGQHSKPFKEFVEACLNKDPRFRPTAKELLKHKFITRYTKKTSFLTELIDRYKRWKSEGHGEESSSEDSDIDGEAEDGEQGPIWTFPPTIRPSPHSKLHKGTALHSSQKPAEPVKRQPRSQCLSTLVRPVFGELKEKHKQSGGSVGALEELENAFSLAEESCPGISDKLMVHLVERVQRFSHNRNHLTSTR

Key:
MST3 (human) = MST3 (human) (UniProt Q9Y6E0); assay: two-hybrid; ULTImate Y2H screens (Hybrigenics) of a random-primed primary human hepatocyte cDNA library in pP6; baits LexA-MST3 and LexA-MST4 in pB27, STK25 screen as described in ref. 26; mating of YHGX13 and L40deltaGal4 yeast strains; selection on medium lacking tryptophan, leucine and histidine
MST4 (human) = MST4 (human) (UniProt Q9P289); assay: as above

In the case of MST4 (from UniProt Q9P289-1 2-416), the binding (MST3 (human)) is reported as “no binding”.

With STK25 (from UniProt O00506 1-426) the binding (MST4 (human)) was “no binding” and the binding (MST3 (human)) was “no binding”.
